Screen size: about 53,000 sequences; about 3,700 (7%) were called active.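 Rule for the calls: active = gene knockdowns whose robust z-score for IL-1 alpha signal is at least 2 or at most -2, so actives lie on both sides; inactive = the rest.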 Some of the results follow.

The nature of the experiment: Components of the Cytosolic LPS Sensing Pathway: Gene Identification via Genome-wide siRNA Screen.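 Note: robust z of the log signal after scaling to non-targeting control siRNA wells of the plate.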 The conditions noted are these: RAW264.7 macrophages, IL-1a HTRF, actives lie on both sides, screened at 100 nM (by protocol), cells primed 5 h with Pam3CSK4 first. The procedure, abridged:
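IL-1a HTRF of supernatants after 24 hour LipidA transfection of Pam3CSK4-primed (5 hours) RAW264.7 cells, 48h post-siRNA transfection (100 nM). Scores: percent of plate negative-control median, then log-based robust z-score.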
A general note: In TR-FRET formats the signal depends on donor and acceptor labels being close together.
For the sequence CGCCCUAUACCGAUACUUUTT against Kcnk5, the z-score is inactive: 0.00385.

Turning to GGAUUUUAGUGAAUUCCAUTT against Asah1, the z-score was inactive: 0.0675. Under GGUGUGCGCAGCAUCAAGATT against Guk1 stands inactive: 0.146; under GGAACUACCUUGUAAAAUUTT against Rbp7, inactive: -1.27; under GCUUAUCCUGGGAAACUUCTT against Fcnb, inactive: -1.05. As for GGAACAGGAAGAAUUCCUATT against Tmem106b, the z-score was inactive: -0.369. On to GGCCAUAAAGUUAACAACATT against Tbx19, for which the z-score was inactive: -0.971. Under GGAUGCGCUGAUAUCAGUATT against Olfr370 stands inactive: 1.3; under GCAGUACGGGACAUCCACUTT against Wdr46, inactive: -0.226. In the case of GCACGUCCAUUCUGCUUUCTT against Smco4, the z-score was active: 2.4. On to GGAAUGGGAUUACACCUACTT against Mymk, for which the z-score was active: 2.67. Under GGGAGGUGCAGAUAGGAUUTT against Csrp1 stands inactive: 0.912; under GGUGCUAAGUUCAAAGUCGTT against Pdcd11, inactive: -1.11; under GGAUCAAUCAAUGACAGUGTT against Taf8, inactive: -0.716. As to CCAGAGUCUUUGGUAAUGCTT against Krtap3-3, the z-score was inactive: 1.07. As for GGAUUACAUUUGUUUUACCTT against Nim1k, the z-score was inactive: -0.131.

As to CCUCUUUAGUCCUCUAAAATT against Rab15, the z-score was inactive: -0.144.

For the sequence GCAUGAUGACAGGAAGGACTT against Olfr527, the z-score is inactive: 0.58. Consider CCUGCCUAGAUGUUUCAGCTT against Ifna13, for which the z-score was inactive: -0.196. As to GGGUGAAAGAAAGAAAGAATT against Plp1, the z-score was inactive: -0.883. Take GGCUGGCUUUGAACUCAAUTT against Zfp36: the z-score was inactive: -1.28.

On to CCAGAUGGGCCCAAUGCAUTT against Ccl7, for which the z-score was inactive: -1.93. Under GCGUGUCAGGGAGUAUUACTT against Igbp1b stands inactive: -0.562; under CCUUUAUUUCUGUGAAUCUTT against Olfr1467, inactive: 0.631.

With GGCCUAAGUAAACACAAAATT against Zkscan3, the z-score was inactive: 0.218.

In the case of GGAAGUCGAGUUGAAAUCGTT against Rida, the z-score is inactive: 0.755. Regarding GCACAUAGCAUCCACUCCATT against Gm4793, the z-score is active: -2.56. For GGGAAACAGAAGUAUCUAUTT against Ar, the z-score was inactive: -0.708. For GGAAGAAAUGGACACCAGATT against Slc12a6, the z-score was inactive: -0.0173.

Regarding GGACUCCUUCCACCACAAUTT against Aifm2, the z-score is inactive: -0.2. In the case of GGCCUUUUCACAACACUAUTT against Zfp958, the z-score was inactive: 0.109. On to GGGACAAGUGAUAAAUUUGTT against Fam91a1, for which the z-score was inactive: -0.424.

Consider GGUCGGAACUCAGUUUAUCTT against Abcg2, for which the z-score was inactive: 0.748. With CGGUUAUUGUACCUAAAGCTT against Olfr827 the figure was inactive: -0.429; with GGCAAACAUUUCAAAUACATT against Tgm4, active: 2.12.

In the case of GGAGAAAGAAAUCCUUCUGTT against Bag2, the z-score was inactive: 0.219. With GGCAUCAAGUUCUAUCUGUTT against Slc6a11, the z-score is inactive: -0.704.

Take GCCAUGUGCACUGAAUAUATT against Gfral: the z-score is inactive: -1.87. Consider GGCUCUGAAUGUCACAACCTT against Il2rb, for which the z-score is inactive: -1.33. With GGGACCACUGGACAUUGAATT against Cxadr the figure was inactive: -0.00684; with GCUAAGAAUAGGAGUUAGATT against Ift57, inactive: 0.419; with GCCCAGAUGGGUUAAUUUCTT against Fzd7, inactive: -0.218. Turning to GGAAGUCUCUGUACAUCUUTT against Chuk, the z-score is inactive: -0.18. Turning to GGGCACCUGACAAAAUUGCTT against Dxo, the z-score is inactive: -0.503. As for GCGACACAUAUUAACCAAATT against Wdr48, the z-score is inactive: -1.04.

Turning to CCCUCUAUCACGGCUACUATT against Hspb2, the z-score was inactive: -0.665. Consider CGCCAAAAGACAUUGCUCATT against Dync2li1, for which the z-score was inactive: -0.151. GGACAGAAUUGAAAUGCCUTT against Ropn1l: the z-score is active: -2.08. As to GGGCAUGAAAUGUUCCUGUTT against Prkcg, the z-score was inactive: 0.0468. As to GCAGUGCACGGAUAACUUCTT against Ccbe1, the z-score was inactive: 0.883. Under GGAUGGUGAGGAGAGUUAATT against Col28a1 stands inactive: -0.624. As to GGGAAAGAUAGUUAAUGGATT against Icam4, the z-score was inactive: -1.51. As for “GCAUGACAUUCCGAAAACUTT against 4921517D22Rik”, the z-score is inactive: -0.195.

As to GGAGAUUGAGAACACAAGCTT against Hipk2, the z-score is active: 2.37.

In the case of GGACUUCAGCAAAUCCAAGTT against Fam166a, the z-score was inactive: 1.14.

Regarding CCUUCUACAAGUGGUGUUGTT against Actl7a, the z-score is inactive: 1.56. Turning to GGCAAAUUUCACCAUCUUATT against Dsc3, the z-score is inactive: -0.797. With CCUAGCAAAGCUGUUCCACTT against Vapa, the z-score is inactive: 1.68.

On to “GGAGCUUCUACAGUACGAGTT against 4930578I06Rik”, for which the z-score was inactive: 0.12. Take GGAGAAGAAACUGGUGAAGTT against Etfb: the z-score was inactive: -1.36. Consider GCAUGCAUGAUGGAUCUUCTT against Gabrb1, for which the z-score is inactive: 1.56. Under CGACUGGAAAAAGAUUGGGTT against Ttf1 stands inactive: -0.219; under GGCAUACACAGUCUUCAAUTT against Txk, inactive: -0.339; under GGUCGGUGUUUUAUCUGCUTT against Slc17a9, active: -3.2. As to GCUGGUACAAGGUGUUUGATT against Pqbp1, the z-score is inactive: 0.825.

As to GGAUGUCUUAGAUGUUUACTT against Mcm7, the z-score was inactive: 1.69. For GGUUGUGGAACUAGAAUAUTT against Wdr12, the z-score is inactive: -1.29. For GGAGGAGUCUUGAAUCCAGTT against Yod1, the z-score is inactive: -0.122. Turning to GGCUGAAAAAAGUGGAGAATT against Sh3bgr, the z-score was active: 2.12. On to GAUGAUUGACGACAUGGAATT against Rgs9bp, for which the z-score was inactive: 0.656. Under GGUGUUUUACAUAUCGUAATT against Med20 stands inactive: -0.179. In the case of GGGAAAAAUUUCUUCUGUUTT against Olfr918, the z-score is inactive: 0.357. For GGCAGAUGCUAAAAAAGCUTT against Rnf128, the z-score was inactive: 1.01. With GCUACAACUAGAACAAUUATT against Hook1, the z-score was inactive: -0.683. Under GGUACAUCGACUUCCUGUATT against Twist1 stands inactive: 0.475. Take GGACAUCACGCAAAUCGUGTT against Nmnat1: the z-score was inactive: 0.615. Turning to GGACUUGAUCCCAAAGCUGTT against Mrpl17, the z-score was inactive: -1.21. In the case of GCUCCGGAAAGUAAGCAGATT against Tnfrsf26, the z-score is inactive: 0.259. Consider UCAAUUUGACUGAUCUGCATT against Cyp2j11, for which the z-score was inactive: -0.172. Under “GGAAGGUAUCUGAGGUCCGTT against 2810408A11Rik” stands inactive: -0.106; under GGCCUACCCAAUUCUUAACTT against Ces1g, inactive: -0.0881. Take GGGUUCAGGGUGGAAAAUGTT against Dntt: the z-score is inactive: -1.15.

In the case of GCCAGAGUGUCGAAUAUCATT against Dll4, the z-score is inactive: -0.417.

On to GCAGCUGAGAGUGACAUCATT against Atp1a2, for which the z-score is inactive: -1.13. CCAGAUAAUGAACACUUUGTT against Wdr1: the z-score was inactive: 0.447. With “GGAAAAACGGGAUCUGCCATT against A530053G22Rik” the figure was inactive: -0.323; with CGUUUAUCAAUGUAGGUAATT against Kctd18, inactive: 0.8; with GGCAUUCAAAAGGUAAAAUTT against Grid2, inactive: -0.515. With CGCAUUCCUACCAAAAACCTT against Defb14 the figure was inactive: -1.69; with GGCCACAGCAUCAUCAAUGTT against Mxra8, inactive: -0.608. Turning to GCCCUUAGCUUGUGUUAUCTT against Hagh, the z-score was inactive: -0.518. In the case of GGAAAGUCUUGAUGAGUUGTT against Ido2, the z-score was inactive: 0.431. On to GCCAAUUGGAAACUGUGAGTT against Scmh1, for which the z-score was inactive: -1.82. In the case of GGAUUUAUGGAAAAUUGGUTT against Zik1, the z-score was inactive: 0.00163. For the sequence GGAGCUUUUAAGAAUGUGGTT against Ireb2, the z-score is inactive: -1.57.

GGUUGCUGACAAAUGAAAGTT against Fcrla: the z-score is inactive: 0.383. As to GGAACUGAUAGUAAUUGCCTT against Il7, the z-score was inactive: 1.23. As to CCCACAGAUCAGAUGCAUCTT against Abhd6, the z-score is inactive: 0.251. In the case of CCUUUUUAUCGCUUUACUGTT against Scn10a, the z-score is inactive: 0.776. With GCUCAACCCUCAUUGCUUCTT against Zc3h8 the figure was inactive: -1.95. As for GCAACAUCUUGGAUUUAGGTT against Ttc34, the z-score was inactive: -1.38. Regarding GGAAGAUCCUUGGAAAAUUTT against Tmem135, the z-score is inactive: 0.235.

GGGAUCAAAGAUCAGUUAATT against Pih1d2: the z-score was inactive: -0.98. On to CCGAGAUGCCAAUAAAUGATT against Tcl1, for which the z-score was inactive: -0.371. CCAUCUACCGGAAAAUAACTT against Hdhd5: the z-score is inactive: 0.378. As to GGAAAGAGCAAACAGUUCCTT against Il1f6, the z-score is active: -2.09. With GGCAUGAAAGCACAAAUGGTT against Czib, the z-score is inactive: -0.21.

The record behind these values is PubChem BioAssay AID1508600 (Functional Genomics Laboratory (NCATS/FGL), 2020).
